These results are taken from publication PMC5457685, “Pellino-1 promotes lung carcinogenesis via the stabilization of Slug and Snail through K63-mediated polyubiquitination” (Cell Death and Differentiation, 2016).

The target of this experiment is T1, TAP-Pellino-1 (Flag-tagged Pellino-1) (human) (UniProt Q96FA3).
T1 sequence: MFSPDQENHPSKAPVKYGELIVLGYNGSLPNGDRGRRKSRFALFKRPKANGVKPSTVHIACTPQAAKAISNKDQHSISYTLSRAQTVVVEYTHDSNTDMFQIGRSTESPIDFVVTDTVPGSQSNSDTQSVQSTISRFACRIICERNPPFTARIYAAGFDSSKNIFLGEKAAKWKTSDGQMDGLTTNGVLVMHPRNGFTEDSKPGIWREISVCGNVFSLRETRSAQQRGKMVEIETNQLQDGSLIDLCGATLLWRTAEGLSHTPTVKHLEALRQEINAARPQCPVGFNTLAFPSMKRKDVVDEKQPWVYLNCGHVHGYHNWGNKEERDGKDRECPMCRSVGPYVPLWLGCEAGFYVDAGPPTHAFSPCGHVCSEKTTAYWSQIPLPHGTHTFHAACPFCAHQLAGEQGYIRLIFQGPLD
As to the kind of experiment: pull-down; TAP-Pellino-1 (Strep-Flag) transfected 293T cells lysed in NETN buffer (100 mM NaCl, 1 mM EDTA, 20 mM Tris-HCl pH 8.0, 0.5% NP-40); streptavidin-sepharose beads 8 h at 4 °C; bound proteins immunoblotted. A general note: Immunoblotting shows a protein as a band on a membrane.

These are yes or no findings as the source states them, for the method shown. Binding seen in cells or lysates may run through a third protein. Where a sequence is shown, tags or fusion partners need not be part of it.

For the substance “E-cadherin (endogenous) (human (endogenous in 293T))”, the binding entry is “no binding”.
